Experimental data as given in paper PMC7819943, “Rice protein-binding microarrays: a tool to detect cis-acting elements near promoter regions in rice”.
The other results are listed elsewhere or left out.

Protein sequences, listed by entry. Tags and fused reporters are not part of them.
UniProt Q0JBA9, entry or part of it: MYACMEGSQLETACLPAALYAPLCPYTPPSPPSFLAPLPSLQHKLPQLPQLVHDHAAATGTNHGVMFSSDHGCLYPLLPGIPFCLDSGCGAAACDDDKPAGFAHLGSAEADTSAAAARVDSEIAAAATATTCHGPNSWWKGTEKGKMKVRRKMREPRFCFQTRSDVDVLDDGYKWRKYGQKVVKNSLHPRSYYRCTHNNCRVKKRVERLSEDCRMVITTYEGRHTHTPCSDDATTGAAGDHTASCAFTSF

What follows are sequences tested against OsWRKY34 (Oryza sativa, UniProt Q0JBA9 1-250) (assay: protein-binding microarray (RPBM); PBS, 2% BSA, 51.3 ng/ul salmon testes DNA, 50 uM zinc acetate, 200 nM TF, 25 C, 1 h; high values mean tight binding). Conditions: protein: recombinant; tags: N-terminal polyhistidine and DsRed monomer fusion (pET32a); label: CyDye5-dUTP incorporated in the synthesized complementary strand; 3' TTTTT single-stranded linker to array surface; dsDNA, one strand shown.
Method in brief: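 Transcription factors were made in E. coli BL21-CodonPlus as N-terminal fusions to a polyhistidine tag and DsRed, then purified on Ni–NTA. After primer extension with Cy5-dUTP and blocking with 2% BSA, a custom Agilent array was exposed for 1 h at 25 °C to 200 nM protein in PBS, 2% BSA, salmon testes DNA and 50 µM zinc acetate. Washed arrays were scanned on an Axon 4000B, and the binding signal is per-feature fluorescence intensity in arbitrary units.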

Sequence	binding signal
ATTTTGCAAATGTCAATTGTACATGAACTCTATCTGCAATCGGAGTCACCTAGTGCAG	8260 fluorescence intensity (a.u.)
TGTATATGTTTTATAGAGAGCACCTTACTTTACCATTTTCCGGAGTCACCTAGTGCAG	8400 fluorescence intensity (a.u.)
TGCCGCTGCTCCGCCCGCAAGCCGTGCTTGCCTGCCACCGCGGAGTCACCTAGTGCAG	8480 fluorescence intensity (a.u.)
TCGGTGGGTGGGTTGAGGATCGTGACAGTTACCGAGCATGCGGAGTCACCTAGTGCAG	11800 fluorescence intensity (a.u.)
GTCTCCATCGCTTCCTTGTTGGCCTGTTCCTGCGAGCTTCCGGAGTCACCTAGTGCAG	10400 fluorescence intensity (a.u.)
TTGGAGTTGGTATGGGAAATTTGTGTGGGCTATAGTTTGTCGGAGTCACCTAGTGCAG	11300 fluorescence intensity (a.u.)
TACTCTCTGACTCAGCAAACAATCACATAATCCTCTAAGACGGAGTCACCTAGTGCAG	9040 fluorescence intensity (a.u.)
TATATCATTTGTATTTCATTCCTGCTTTATACCATTCTAACGGAGTCACCTAGTGCAG	10400 fluorescence intensity (a.u.)
GAGAAGTGATCTTTGCTGGGTAGGGGCACCGGAGCTCCGTCGGAGTCACCTAGTGCAG	11900 fluorescence intensity (a.u.)
ACCACCAGTCCACCACCAAAATTAGCATGGAAGCAGCTTCCGGAGTCACCTAGTGCAG	9460 fluorescence intensity (a.u.)
TGTGTGTCACGTTTGGCTATTTGGCTGGTCGTACGATGCCCGGAGTCACCTAGTGCAG	8690 fluorescence intensity (a.u.)
GCCCGGCCCATGGCACGCCTTTTTGGCCCGGCCCAAGCACCGGAGTCACCTAGTGCAG	8050 fluorescence intensity (a.u.)
ACTTTTTTTTCCCTCTTTGACTCTTTAACTTACCTGCTCCCGGAGTCACCTAGTGCAG	8950 fluorescence intensity (a.u.)
TTTCTTTTGTTGCGACTTGTTTTATACCACATCCATCCCACGGAGTCACCTAGTGCAG	10400 fluorescence intensity (a.u.)
AATCGGATATATAAACTTTTGTCTTATAAACTTTGGTTCTCGGAGTCACCTAGTGCAG	8140 fluorescence intensity (a.u.)
ATCCCACCGTGGCGCCACCCTATTGGGCCCTACTCTTCAGCGGAGTCACCTAGTGCAG	8780 fluorescence intensity (a.u.)
CTATACATTTACGTCGTCTAGCTATATTACACGTTACTTTCGGAGTCACCTAGTGCAG	14600 fluorescence intensity (a.u.)
CTGCTGGCCCCACCCGTCATATACACCCTCATCCAGCCGGCGGAGTCACCTAGTGCAG	8030 fluorescence intensity (a.u.)
CTTACCATTACAATAACTGATATGTGAGTCCTATTTTCTTCGGAGTCACCTAGTGCAG	8360 fluorescence intensity (a.u.)
ATCCTATTTTCCTTACTCCTCTAAACTCTATTCCCCTTCTCGGAGTCACCTAGTGCAG	8580 fluorescence intensity (a.u.)
GCCGTCCATTAAGCAATACAGTACATATCTCGTATTCTCACGGAGTCACCTAGTGCAG	10800 fluorescence intensity (a.u.)

Sequence	binding signal
CGGTCTGGCTGATTGTGTTGTTGTAACAAAAACTTTTTTTCGGAGTCACCTAGTGCAG	9230 fluorescence intensity (a.u.)
GTTTAAATGAGCTTAGGGGTATACATTTCTGATTTTGTGACGGAGTCACCTAGTGCAG	11100 fluorescence intensity (a.u.)
CTAAAGCGTTATCCCACACGTGGATCCATCCCCACCGTCCCGGAGTCACCTAGTGCAG	8530 fluorescence intensity (a.u.)
ACGTTCCATTACTCATATTCATATAAATATTAATGAATACCGGAGTCACCTAGTGCAG	8090 fluorescence intensity (a.u.)
GTCGATCTCCCTGCTTTTCCCAGTACAAACTGCAACTGTTCGGAGTCACCTAGTGCAG	8290 fluorescence intensity (a.u.)
TCCGGAGGAGGAGGAGGAGTTGGGGTGGAGGGGAGCTATGCGGAGTCACCTAGTGCAG	9340 fluorescence intensity (a.u.)
GTTTTTTGGCCCCGTTTATTGTTTATCCTTTATTCTAACACGGAGTCACCTAGTGCAG	15700 fluorescence intensity (a.u.)
GACCACGCACTTCTGCTGTAATAATCACTAATTCACACAACGGAGTCACCTAGTGCAG	10500 fluorescence intensity (a.u.)
GTCATTTTCCATCACATCAACCTGTCATACACACACAACTCGGAGTCACCTAGTGCAG	9180 fluorescence intensity (a.u.)
ATTTCACAATCACCTTTTTGGCCATTTTGCACCTTAATTACGGAGTCACCTAGTGCAG	10100 fluorescence intensity (a.u.)
AAAATTCCTAAAACTACTTGCTACTATTCTCTCTCCAACTCGGAGTCACCTAGTGCAG	8240 fluorescence intensity (a.u.)
TTGGAACTACTCCCTCGATCTACTTTTGATAATCATTTTTCGGAGTCACCTAGTGCAG	8800 fluorescence intensity (a.u.)
TTTATTTTTATTCTGAATTTTAATTAATCTCGTATTGGGTCGGAGTCACCTAGTGCAG	8380 fluorescence intensity (a.u.)
ACTTCTCTTCGGTGTTTTGCTTGCTTCGGATTTCAGAATTCGGAGTCACCTAGTGCAG	13500 fluorescence intensity (a.u.)
CTCCTCGCGCCACGTCACCCCTCCGGATCCCTTTAAAACCCGGAGTCACCTAGTGCAG	9350 fluorescence intensity (a.u.)
ATTTCGTCAACATAGATACAATGTCATTTTTTTTTCTTTTCGGAGTCACCTAGTGCAG	8690 fluorescence intensity (a.u.)
ATTCGCTGCCGGGGACGCCGTCTTCTCCGTCAACTCCGGCCGGAGTCACCTAGTGCAG	10400 fluorescence intensity (a.u.)
GGGTTGGTTTGGTTTGGTTGCTTCTTCTCTGCTTCAACGGCGGAGTCACCTAGTGCAG	40000 fluorescence intensity (a.u.)
AAAGGAATGGCCCAAATAAACAAGTTTTTTCCTAAAATAACGGAGTCACCTAGTGCAG	63000 fluorescence intensity (a.u.)
AGTTCCTTGCACCTAATGATATGAGTTTATATTTCTGAACCGGAGTCACCTAGTGCAG	8080 fluorescence intensity (a.u.)
CCTACACTGAAGTTAAGCAGATCTTCCAGGCCTCGTGTTTCGGAGTCACCTAGTGCAG	8780 fluorescence intensity (a.u.)

Sequence	binding signal
GCCTCCAGGTATTTATCATAGCACTGCAGTATTTTTTTTACGGAGTCACCTAGTGCAG	9010 fluorescence intensity (a.u.)
GTAGGGTGTTTAATTTTTCTTTTTGAAATTTATTTATTTACGGAGTCACCTAGTGCAG	12900 fluorescence intensity (a.u.)
AGCTGACCGCGCGACCGCCACTACCTCCTCGTCATTTCCCCGGAGTCACCTAGTGCAG	8680 fluorescence intensity (a.u.)
TCCCACCGTGGAAGCCTCGCCGCCACACTGTCCCAGCCTTCGGAGTCACCTAGTGCAG	8800 fluorescence intensity (a.u.)
TGAACGCATCAACACATATATGCACTTCATCCTACTTGTTCGGAGTCACCTAGTGCAG	8470 fluorescence intensity (a.u.)
TGGTTAATTACGTTCCGGTTCATGCTATTGAGGTCCGTTCCGGAGTCACCTAGTGCAG	13100 fluorescence intensity (a.u.)
GTTTTGTTTCAGCCAGATGGTTTTTCATGTTAGCATTAAACGGAGTCACCTAGTGCAG	8470 fluorescence intensity (a.u.)
GCTGCTCACTAGCTTCCCATTCGCTCGGCCTTGGAGCGCGCGGAGTCACCTAGTGCAG	8130 fluorescence intensity (a.u.)
ACCTACGCTACGCAAGCTTATCTATTTGCCGCCTTTTTCACGGAGTCACCTAGTGCAG	10900 fluorescence intensity (a.u.)
ACTACTTTCTCCGTTCCAAAATATAGCTACCTATTACATGCGGAGTCACCTAGTGCAG	8830 fluorescence intensity (a.u.)
ATTCTATACTTGGCACAAATGCTCGTATTTAAGGTTATTTCGGAGTCACCTAGTGCAG	8250 fluorescence intensity (a.u.)
GGTTTTAAGCTTTGGAGGTGTGCATTTTTTGTACCATATTCGGAGTCACCTAGTGCAG	8580 fluorescence intensity (a.u.)
CGTGGCTTCGCTCCCACCGACCACCGCCGCCGCTTCCCCGCGGAGTCACCTAGTGCAG	10300 fluorescence intensity (a.u.)
ACACGGTTTTCAAAACACAACTTTGACTTCTTGTTTCTATCGGAGTCACCTAGTGCAG	8180 fluorescence intensity (a.u.)
CCACCGCCCGCCGTCGTCTCTCTCTCTCTCTCTCTCTCTTCGGAGTCACCTAGTGCAG	9970 fluorescence intensity (a.u.)
CTTTTCACTTTGTACCATATGCTGATTTACTGCCTTGTTTCGGAGTCACCTAGTGCAG	10500 fluorescence intensity (a.u.)
CGGGTCGCTGCCGCTGATTTGCCCAAGTAGATTTGGACTCCGGAGTCACCTAGTGCAG	11600 fluorescence intensity (a.u.)
GCGTTCGGTTAAGCCCTGCCGTGAATTTTAGCCCGGCCCACGGAGTCACCTAGTGCAG	9620 fluorescence intensity (a.u.)
GTTGTTGTTGTTGTTGTTGTTGTTGTTGTTTCTTTGCATTCGGAGTCACCTAGTGCAG	11500 fluorescence intensity (a.u.)
TCATATTGTACCTTCCACTTTTATTCTTTTAAAGCCTATACGGAGTCACCTAGTGCAG	9560 fluorescence intensity (a.u.)
AAAATTGATGTTCTCTTTGGTGCATTTCTTTCTTATTGTCCGGAGTCACCTAGTGCAG	8490 fluorescence intensity (a.u.)

5 records drawn at random from the list so far:
Sequence	binding signal
GTTGTTGTTGTTGTTGTTGTTGTTGTTGTTTCTTTGCATTCGGAGTCACCTAGTGCAG	11500 fluorescence intensity (a.u.)
GGTTTTAAGCTTTGGAGGTGTGCATTTTTTGTACCATATTCGGAGTCACCTAGTGCAG	8580 fluorescence intensity (a.u.)
TCCCACCGTGGAAGCCTCGCCGCCACACTGTCCCAGCCTTCGGAGTCACCTAGTGCAG	8800 fluorescence intensity (a.u.)
GTTTTGTTTCAGCCAGATGGTTTTTCATGTTAGCATTAAACGGAGTCACCTAGTGCAG	8470 fluorescence intensity (a.u.)
GCGTTCGGTTAAGCCCTGCCGTGAATTTTAGCCCGGCCCACGGAGTCACCTAGTGCAG	9620 fluorescence intensity (a.u.)

Remaining list, next part.

Sequence	binding signal
AGAGTCGCCGCCACGATGACACACACGCCACGCGCCCCGACGGAGTCACCTAGTGCAG	8350 fluorescence intensity (a.u.)
CGGTGGGTCCCACGCGTCAGCGACCGTGGGTAGGGTGGGCCGGAGTCACCTAGTGCAG	9180 fluorescence intensity (a.u.)
CTTTTGCCCCTGCTGCCTCTGCACACTGCACGCTCCCTTCCGGAGTCACCTAGTGCAG	8170 fluorescence intensity (a.u.)
GGGGCGCCGCGGGGTGGTGCTGTTGTCGGTAGGGAGGGAGCGGAGTCACCTAGTGCAG	12900 fluorescence intensity (a.u.)
CTTCCCTCTCGCGTCTCCTCCTCTCCTCTCCTCGCTTCTTCGGAGTCACCTAGTGCAG	8090 fluorescence intensity (a.u.)
TATGGCGGGAGGAGGGAGGTGGATGTAAATATATATATATCGGAGTCACCTAGTGCAG	13200 fluorescence intensity (a.u.)
GGTTTTGCTAGCTCCTGCCCCGCTGCATCTGTTAAATGTTCGGAGTCACCTAGTGCAG	11000 fluorescence intensity (a.u.)
ATATGGAGAGCACCTTATTTTATTATTGCGAGTGCTCTAACGGAGTCACCTAGTGCAG	10000 fluorescence intensity (a.u.)
ATTCTTCTTGCAGGTAACAAGCCTGCCGCCAGGCCTGGGTCGGAGTCACCTAGTGCAG	9030 fluorescence intensity (a.u.)
TACTTGCACTCAGATCGTCGGCGTCTGAATTCTTCTGTTCCGGAGTCACCTAGTGCAG	10100 fluorescence intensity (a.u.)
ATAGGTTGATCATAATTGTGGGAGATTTCCCCGCCGTTGACGGAGTCACCTAGTGCAG	8120 fluorescence intensity (a.u.)
CCATCTCTCTCTCTCTCTCTCTCTCTCCCGTGCTGCTCTCCGGAGTCACCTAGTGCAG	10400 fluorescence intensity (a.u.)
CCATTTTTTTACTCGATCGATCAGCTACTCATCCACTATACGGAGTCACCTAGTGCAG	11600 fluorescence intensity (a.u.)
GCTCCACCTTGCCGCGATCCGTCGCAATTCTTTGATTCCCCGGAGTCACCTAGTGCAG	10400 fluorescence intensity (a.u.)
TTCTTGTTCCTTTTGCCTAGGTTTTGTCCAAGTACAACAGCGGAGTCACCTAGTGCAG	10100 fluorescence intensity (a.u.)
CCGCCACTCCTCCCTGCCGCGCGTCGCCGCTTGTTGCGTACGGAGTCACCTAGTGCAG	9050 fluorescence intensity (a.u.)
AATGTGACGAAACCAGCGCTTTGAAGCCTACTTCCTTTTCCGGAGTCACCTAGTGCAG	9590 fluorescence intensity (a.u.)
GTTCAAAATATTGCATTTTCAAGTCTAACCGTTTCAAGCTCGGAGTCACCTAGTGCAG	9440 fluorescence intensity (a.u.)
CCGATAAATATGTTTGTTAACCGTTCCACCAAAGAGTATCCGGAGTCACCTAGTGCAG	8400 fluorescence intensity (a.u.)
ATTATGTACTTCCCTAATATTCGTGTTTTGATTCAAACTACGGAGTCACCTAGTGCAG	8190 fluorescence intensity (a.u.)
AATACTCATTCTCCTGTCTCGCCTTAAAACTGATTGATCACGGAGTCACCTAGTGCAG	8920 fluorescence intensity (a.u.)
